Test results: publication doi:10.1101/2022.10.25.513763

T1: His6-tagged Rpt3 (S. cerevisiae) (UniProt P33298)
T1 sequence: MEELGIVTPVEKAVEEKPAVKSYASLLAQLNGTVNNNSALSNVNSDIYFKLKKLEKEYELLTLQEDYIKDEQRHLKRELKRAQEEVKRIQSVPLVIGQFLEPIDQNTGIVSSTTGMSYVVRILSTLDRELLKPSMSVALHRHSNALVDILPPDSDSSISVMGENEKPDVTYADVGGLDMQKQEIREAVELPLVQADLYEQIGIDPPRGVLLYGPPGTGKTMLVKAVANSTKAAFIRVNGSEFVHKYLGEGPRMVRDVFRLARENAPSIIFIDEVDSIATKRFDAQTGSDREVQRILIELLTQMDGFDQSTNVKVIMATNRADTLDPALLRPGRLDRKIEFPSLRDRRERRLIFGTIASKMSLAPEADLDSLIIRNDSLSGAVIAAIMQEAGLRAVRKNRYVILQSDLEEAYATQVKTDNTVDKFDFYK


Target: T1, His6-tagged Rpt3 (S. cerevisiae)
Experiment: affinity purification with mass spectrometry

| Binder | binding |
| --- | --- |
| Rpn2 (protein, UniProt P32565 1-945) MSLTTAAPLLALLRENQDSVKTYALESINNVVDQLWSEISNELPDIEALYDDDTFSDREMAALIASKVYYNLGEYESAVKYALAAKDRFDIDEKSQFVETIVSKSIEMYVQEASKQYTKDEQFYTKDIIDPKLTSIFERMIEKCLKASELKLALGIALEGYRLDIIESALKSKLDQDSTSENVKIINYLLTLAITTVTNSKFRSSILRKSFDFLMNMPNCDYLTLNKVVVNLNDAGLALQLFKKLKEENDEGLSAQIAFDLVSSASQQLLEILVTELTAQGYDPALLNILSGLPTCDYYNTFLLNNKNIDIGLLNKSKSSLDGKFSLFHTAVSVANGFMHAGTTDNSFIKANLPWLGKAQNWAKFTATASLGVIHKGNLLEGKKVMAPYLPGSRASSRFIKGGSLYGLGLIYAGFGRDTTDYLKNIIVENSGTSGDEDVDVLLHGASLGIGLAAMGSANIEVYEALKEVLYNDSATSGEAAALGMGLCMLGTGKPEAIHDMFTYSQETQHGNITRGLAVGLALINYGRQELADDLITKMLASDESLLRYGGAFTIALAYAGTGNNSAVKRLLHVAVSDSNDDVRRAAVIALGFVLLRDYTTVPRIVQLLSKSHNAHVRCGTAFALGIACAGKGLQSAIDVLDPLTKDPVDFVRQAAMIALSMILIQQTEKLNPQVADINKNFLSVITNKHQEGLAKFGACVAQGIMNAGGRNVTIQLENADTGTLDTKSVVGLVMFSQFWYWFPLAHFLSLSFTPTTVIGIRGSDQAIPKFQMNCYAKEDAFSYPRMYEEASGKEVEKVATAVLSTTARAKARAKKTKKEKGPNEEEKKKEHEEKEKERETNKKGIKETKENDEEFYKNKYSSKPYKVDNMTRILPQQSRYISFIKDDRFVPVRKFKGNNGVVVLRDREPKEPVALIETVRQMKDVNAPLPTPFKVDDNVDFPSA | binds |
| Rpn13 (protein, UniProt O13563 1-156) MSMSSTVIKFRAGVCEYNEDSRLCTPIPVQGEIEIKPNEEEELGFWDFEWRPTEKPVGRELDPISLILIPGETMWVPIKSSKSGRIFALVFSSNERYFFWLQEKNSGNLPLNELSAKDKEIYNKMIGVLNNSSESDEEESNDEKQKAQDVDVSMQD | binds |

These are yes or no findings as the source states them, for the method shown. Binding seen in cells or lysates may run through a third protein. A yes stands for co-enrichment or nearness to the bait. Other partners may have been found. Tags and fused reporters may be left off the sequences shown.
